Where a chain is given by its changes, count along the chain named. Some of the results follow. For some assays here: At the low end of the ranking the order means little. For some assays here: Construct or isoform of the protein are uncertain.
Key:
Details in all cases: yeast three-hybrid, YBZ-1, SC-Leu-His + 0.5 mM 3-AT, 4 days
[1] = biological target: T1, PUM1 PUF domain R1-QFR R2-VFQ R7-NPG S863Q + R864F + Q867R + N899V + Y900F + S1079N + N1080P + E1083G (UniProt Q14671)
T1 sequence: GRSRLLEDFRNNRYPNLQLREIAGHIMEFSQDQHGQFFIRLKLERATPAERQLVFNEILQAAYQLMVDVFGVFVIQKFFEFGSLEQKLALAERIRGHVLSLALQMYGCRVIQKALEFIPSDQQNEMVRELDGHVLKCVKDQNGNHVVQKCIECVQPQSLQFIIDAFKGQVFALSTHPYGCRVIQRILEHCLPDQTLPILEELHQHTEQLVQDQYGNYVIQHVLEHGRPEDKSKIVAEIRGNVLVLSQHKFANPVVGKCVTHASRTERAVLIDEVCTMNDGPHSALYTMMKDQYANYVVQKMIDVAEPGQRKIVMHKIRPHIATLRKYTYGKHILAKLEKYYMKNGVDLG

[2] = biological target: T2, PUM1 PUF domain R2-VFQ R3-THE R4-TFR N899V + Y900F + C935T + R936H + Q939E + N971T + H972F + Q975R (UniProt Q14671)
T2 sequence: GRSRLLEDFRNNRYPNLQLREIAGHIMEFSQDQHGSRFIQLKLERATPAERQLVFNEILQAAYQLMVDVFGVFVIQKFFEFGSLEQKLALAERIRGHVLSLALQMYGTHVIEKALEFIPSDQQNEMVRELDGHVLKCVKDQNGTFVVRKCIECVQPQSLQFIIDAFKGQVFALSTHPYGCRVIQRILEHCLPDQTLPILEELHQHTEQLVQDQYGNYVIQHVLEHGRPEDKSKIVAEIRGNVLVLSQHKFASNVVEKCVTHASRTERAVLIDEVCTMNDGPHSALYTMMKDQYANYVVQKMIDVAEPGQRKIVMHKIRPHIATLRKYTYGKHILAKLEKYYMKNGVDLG

[3] = biological target: T3, PUM1 PUF domain R3-THE R4-TFR C935T + R936H + Q939E + N971T + H972F + Q975R (UniProt Q14671)
T3 sequence: T2 sequence with V72N, F73Y

[4] = biological target: T4, PUM1 PUF domain R3-THE R4-TFR R7-NPG C935T + R936H + Q939E + N971T + H972F + Q975R + S1079N + N1080P + E1083G (Homo sapiens) (UniProt Q14671)
T4 sequence: T2 sequence with V72N, F73Y, S252N, N253P, E256G

[5] = biological target: T5, PUM1 PUF domain R5-PHQ R6-SWD C1007P + R1008H + N1043S + Y1044W + Q1047D (UniProt Q14671)
T5 sequence: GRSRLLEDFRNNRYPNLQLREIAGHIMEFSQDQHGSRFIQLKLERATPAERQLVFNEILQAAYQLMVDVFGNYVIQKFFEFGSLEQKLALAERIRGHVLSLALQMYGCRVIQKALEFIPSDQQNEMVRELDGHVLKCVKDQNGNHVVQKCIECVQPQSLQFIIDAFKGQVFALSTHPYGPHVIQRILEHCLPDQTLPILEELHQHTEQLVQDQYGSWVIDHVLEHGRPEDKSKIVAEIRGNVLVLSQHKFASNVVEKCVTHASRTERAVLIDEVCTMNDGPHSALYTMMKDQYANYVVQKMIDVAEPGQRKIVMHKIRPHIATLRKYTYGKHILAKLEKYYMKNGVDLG

[6] = biological target: T6, PUM1 PUF domain R3-THE R4-TFR C935T + R936H + Q939E + N971T + H972F + Q975R (Homo sapiens) (UniProt Q14671)
T6 sequence: T2 sequence with V72N, F73Y

[7] = biological target: T7, PUM1 PUF domain R6-SWD R7-NPG N1043S + Y1044W + Q1047D + S1079N + N1080P + E1083G (Homo sapiens) (UniProt Q14671)
T7 sequence: T5 sequence with P180C, H181R, S252N, N253P, E256G

[8] = biological target: T8, PUM1 PUF domain R3-THE R4-TFR R7-NPG C935T + R936H + Q939E + N971T + H972F + Q975R + S1079N + N1080P + E1083G (UniProt Q14671)
T8 sequence: T2 sequence with V72N, F73Y, S252N, N253P, E256G

GGCUAGAACUAGUGGAUCCCCCGGCGCCCGGCGGCUCGAGCCCGGGUAAGGUUGAGAAGUCUGCAUGCCGCCGGGCGCCAUGCCUGCAGGUCGACUCUAGAAAACAUG
binding signal (log2 enrichment (interaction score)) [1]: -6.01
binding signal (log2 enrichment (interaction score)) [2]: -5.36
binding signal (log2 enrichment (interaction score)) [3]: -6.44

GGCUAGAACUAGUGGAUCCCCCGGCGCCCGGCGGCUCGAGCCCGGGUAAGAGUGAGUUGUCUGCAUGCCGCCGGGCGCCAUGCCUGCAGGUCGACUCUAGAAAACAUG
binding signal (log2 enrichment (interaction score)) [1]: -5.4
binding signal (log2 enrichment (interaction score)) [2]: -6.05
binding signal (log2 enrichment (interaction score)) [3]: < -7.59

GGCUAGAACUAGUGGAUCCCCCGGCGCCCGGCGGCUCGAGCCCGGGUAAGUUCACAUAGUCUGCAUGCCGCCGGGCGCCAUGCCUGCAGGUCGACUCUAGAAAACAUG
binding signal (log2 enrichment (interaction score)) [1]: -6.58
binding signal (log2 enrichment (interaction score)) [2]: -5.64
binding signal (log2 enrichment (interaction score)) [3]: -6.28
binding signal (log2 enrichment (interaction score)) [4]: < -1.56
binding signal (log2 enrichment (interaction score)) [5]: -8.32

GGCUAGAACUAGUGGAUCCCCCGGCGCCCGGCGGCUCGAGCCCGGGUAAGUAUACAAAGUCUGCAUGCCGCCGGGCGCCAUGCCUGCAGGUCGACUCUAGAAAACAUG
binding signal (log2 enrichment (interaction score)) [1]: -4.28
binding signal (log2 enrichment (interaction score)) [2]: -5.51
binding signal (log2 enrichment (interaction score)) [3]: -7.52
binding signal (log2 enrichment (interaction score)) [4]: -1.39
binding signal (log2 enrichment (interaction score)) [5]: -8.73

GGCUAGAACUAGUGGAUCCCCCGGCGCCCGGCGGCUCGAGCCCGGGUAAGUUUAGAAAGUCUGCAUGCCGCCGGGCGCCAUGCCUGCAGGUCGACUCUAGAAAACAUG
binding signal (log2 enrichment (interaction score)) [1]: -6.33
binding signal (log2 enrichment (interaction score)) [2]: -5.74
binding signal (log2 enrichment (interaction score)) [3]: -7.55

GGCUAGAACUAGUGGAUCCCCCGGCGCCCGGCGGCUCGAGCCCGGGUAAGUGUACAUAGUCUGCAUGCCGCCGGGCGCCAUGCCUGCAGGUCGACUCUAGAAAACAUG
binding signal (log2 enrichment (interaction score)) [1]: -6.11
binding signal (log2 enrichment (interaction score)) [2]: -5.5
binding signal (log2 enrichment (interaction score)) [6]: 0.16
binding signal (log2 enrichment (interaction score)) [5]: -7.84
binding signal (log2 enrichment (interaction score)) [7]: -0.91

GGCUAGAACUAGUGGAUCCCCCGGCGCCCGGCGGCUCGAGCCCGGGUAAGCGUAGGUUGUCUGCAUGCCGCCGGGCGCCAUGCCUGCAGGUCGACUCUAGAAAACAUG
binding signal (log2 enrichment (interaction score)) [1]: -4.83
binding signal (log2 enrichment (interaction score)) [2]: -5.74
binding signal (log2 enrichment (interaction score)) [3]: -6.64
binding signal (log2 enrichment (interaction score)) [4]: -1.89

GGCUAGAACUAGUGGAUCCCCCGGCGCCCGGCGGCUCGAGCCCGGGUAAGUAGAAGAAGUCUGCAUGCCGCCGGGCGCCAUGCCUGCAGGUCGACUCUAGAAAACAUG
binding signal (log2 enrichment (interaction score)) [1]: -4.73
binding signal (log2 enrichment (interaction score)) [2]: -5.22
binding signal (log2 enrichment (interaction score)) [3]: -6.66
binding signal (log2 enrichment (interaction score)) [4]: -0.93
binding signal (log2 enrichment (interaction score)) [5]: -8.64

GGCUAGAACUAGUGGAUCCCCCGGCGCCCGGCGGCUCGAGCCCGGGUAAGUAUCCGUAGUCUGCAUGCCGCCGGGCGCCAUGCCUGCAGGUCGACUCUAGAAAACAUG
binding signal (log2 enrichment (interaction score)) [1]: -5.44
binding signal (log2 enrichment (interaction score)) [2]: -5.77
binding signal (log2 enrichment (interaction score)) [3]: -6.87
binding signal (log2 enrichment (interaction score)) [4]: -1.1

GGCUAGAACUAGUGGAUCCCCCGGCGCCCGGCGGCUCGAGCCCGGGUAAGUUUAUACAGUCUGCAUGCCGCCGGGCGCCAUGCCUGCAGGUCGACUCUAGAAAACAUG
binding signal (log2 enrichment (interaction score)) [1]: -5.53
binding signal (log2 enrichment (interaction score)) [2]: -5.03
binding signal (log2 enrichment (interaction score)) [3]: -5.8
binding signal (log2 enrichment (interaction score)) [4]: -1.43

GGCUAGAACUAGUGGAUCCCCCGGCGCCCGGCGGCUCGAGCCCGGGUAAGUAUCCGUCGUCUGCAUGCCGCCGGGCGCCAUGCCUGCAGGUCGACUCUAGAAAACAUG
binding signal (log2 enrichment (interaction score)) [1]: -4.37
binding signal (log2 enrichment (interaction score)) [2]: -4.99
binding signal (log2 enrichment (interaction score)) [3]: -6.73

GGCUAGAACUAGUGGAUCCCCCGGCGCCCGGCGGCUCGAGCCCGGGUAAGUGUAAGUAGUCUGCAUGCCGCCGGGCGCCAUGCCUGCAGGUCGACUCUAGAAAACAUG
binding signal (log2 enrichment (interaction score)) [1]: -6.06
binding signal (log2 enrichment (interaction score)) [2]: -5.04
binding signal (log2 enrichment (interaction score)) [6]: -1.27
binding signal (log2 enrichment (interaction score)) [8]: -2.47
binding signal (log2 enrichment (interaction score)) [5]: -6.92

GGCUAGAACUAGUGGAUCCCCCGGCGCCCGGCGGCUCGAGCCCGGGUAAGUUGACGAUGUCUGCAUGCCGCCGGGCGCCAUGCCUGCAGGUCGACUCUAGAAAACAUG
binding signal (log2 enrichment (interaction score)) [1]: -5
binding signal (log2 enrichment (interaction score)) [2]: -5.8
binding signal (log2 enrichment (interaction score)) [3]: < -7.72

GGCUAGAACUAGUGGAUCCCCCGGCGCCCGGCGGCUCGAGCCCGGGUAAGUGUGCGAAGUCUGCAUGCCGCCGGGCGCCAUGCCUGCAGGUCGACUCUAGAAAACAUG
binding signal (log2 enrichment (interaction score)) [1]: -6.49
binding signal (log2 enrichment (interaction score)) [2]: -4.12
binding signal (log2 enrichment (interaction score)) [3]: -6.88

GGCUAGAACUAGUGGAUCCCCCGGCGCCCGGCGGCUCGAGCCCGGGUAAGUGUAAUUAGUCUGCAUGCCGCCGGGCGCCAUGCCUGCAGGUCGACUCUAGAAAACAUG
binding signal (log2 enrichment (interaction score)) [1]: -5.87
binding signal (log2 enrichment (interaction score)) [2]: -6.14
binding signal (log2 enrichment (interaction score)) [3]: -4.04
binding signal (log2 enrichment (interaction score)) [5]: -7.11

GGCUAGAACUAGUGGAUCCCCCGGCGCCCGGCGGCUCGAGCCCGGGUAAGUCCAAGUAGUCUGCAUGCCGCCGGGCGCCAUGCCUGCAGGUCGACUCUAGAAAACAUG
binding signal (log2 enrichment (interaction score)) [1]: < -6.03
binding signal (log2 enrichment (interaction score)) [2]: -6.53
binding signal (log2 enrichment (interaction score)) [3]: -7.17

GGCUAGAACUAGUGGAUCCCCCGGCGCCCGGCGGCUCGAGCCCGGGUAAGCCGACGUAGUCUGCAUGCCGCCGGGCGCCAUGCCUGCAGGUCGACUCUAGAAAACAUG
binding signal (log2 enrichment (interaction score)) [1]: -4.59
binding signal (log2 enrichment (interaction score)) [2]: -5.61
binding signal (log2 enrichment (interaction score)) [3]: -7.36

GGCUAGAACUAGUGGAUCCCCCGGCGCCCGGCGGCUCGAGCCCGGGUAAGUUUCCGUAGUCUGCAUGCCGCCGGGCGCCAUGCCUGCAGGUCGACUCUAGAAAACAUG
binding signal (log2 enrichment (interaction score)) [1]: -7.06
binding signal (log2 enrichment (interaction score)) [2]: -6.42
binding signal (log2 enrichment (interaction score)) [3]: -6.74
binding signal (log2 enrichment (interaction score)) [4]: -1.5

GGCUAGAACUAGUGGAUCCCCCGGCGCCCGGCGGCUCGAGCCCGGGUAAGUAGACAAAGUCUGCAUGCCGCCGGGCGCCAUGCCUGCAGGUCGACUCUAGAAAACAUG
binding signal (log2 enrichment (interaction score)) [1]: -6.44
binding signal (log2 enrichment (interaction score)) [2]: -5.28
binding signal (log2 enrichment (interaction score)) [3]: -6.61

GGCUAGAACUAGUGGAUCCCCCGGCGCCCGGCGGCUCGAGCCCGGGUAAGAUUAGGAUGUCUGCAUGCCGCCGGGCGCCAUGCCUGCAGGUCGACUCUAGAAAACAUG
binding signal (log2 enrichment (interaction score)) [1]: -6.66
binding signal (log2 enrichment (interaction score)) [2]: -5.2
binding signal (log2 enrichment (interaction score)) [3]: -6.88

GGCUAGAACUAGUGGAUCCCCCGGCGCCCGGCGGCUCGAGCCCGGGUAAGGGUACGAAGUCUGCAUGCCGCCGGGCGCCAUGCCUGCAGGUCGACUCUAGAAAACAUG
binding signal (log2 enrichment (interaction score)) [1]: -3.52
binding signal (log2 enrichment (interaction score)) [2]: -4.42
binding signal (log2 enrichment (interaction score)) [3]: < -6.29

GGCUAGAACUAGUGGAUCCCCCGGCGCCCGGCGGCUCGAGCCCGGGUAAGUGGACAUAGUCUGCAUGCCGCCGGGCGCCAUGCCUGCAGGUCGACUCUAGAAAACAUG
binding signal (log2 enrichment (interaction score)) [1]: -4.47
binding signal (log2 enrichment (interaction score)) [2]: -5.35
binding signal (log2 enrichment (interaction score)) [3]: -7.4
binding signal (log2 enrichment (interaction score)) [4]: -1.24
binding signal (log2 enrichment (interaction score)) [5]: -7.44

— publication PMC8384837
